This experiment concerns MDA-MB-231. The experiment can be described thus: cells. Conditions: Homo sapiens.

Read-outs that look alike come from different tables or passages of the source.

For orientation: IC50 means the concentration at which inhibition is half-maximal. With `COc1cc2c(c(OC)c1OC)-c1ccc(OC)c(=O)cc1[C@@H](NC(C)=O)CC2` [colchicine], the half-inhibitory concentration (IC50) by setting is: (MDA-MB-231, read-out: IC50 (FIG. 37)) 17.5 nM; (MDA-MB-231, read-out: IC50, cell viability) 17.5 nM.
